Source: PMC11990775
No constants are given. Whether binding was seen depends on the method and setting. In cells and extracts the contact can be indirect. For some of these results: A result given as binding can be weak or reduced; the word gives no strength. Values belong to the substance of their own block, whether it stands above or below them.

Protein sequences, listed by entry. Tags and fused reporters are not part of them. Lines headed by an entry give the natural chain unless they say otherwise; changes in a name come on top.
UniProt Q99J72: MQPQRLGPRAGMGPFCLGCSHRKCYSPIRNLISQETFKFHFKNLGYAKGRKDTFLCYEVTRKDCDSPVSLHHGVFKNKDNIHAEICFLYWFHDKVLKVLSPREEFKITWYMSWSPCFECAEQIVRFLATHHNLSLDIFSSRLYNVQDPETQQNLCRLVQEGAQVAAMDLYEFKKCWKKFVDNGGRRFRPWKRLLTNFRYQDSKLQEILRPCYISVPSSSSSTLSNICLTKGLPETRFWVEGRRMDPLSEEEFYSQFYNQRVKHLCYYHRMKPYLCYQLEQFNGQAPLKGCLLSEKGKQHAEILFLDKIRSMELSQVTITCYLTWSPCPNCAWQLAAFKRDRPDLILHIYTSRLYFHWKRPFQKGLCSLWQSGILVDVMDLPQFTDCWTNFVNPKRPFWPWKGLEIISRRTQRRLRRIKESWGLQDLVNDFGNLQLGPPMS
UniProt O43143: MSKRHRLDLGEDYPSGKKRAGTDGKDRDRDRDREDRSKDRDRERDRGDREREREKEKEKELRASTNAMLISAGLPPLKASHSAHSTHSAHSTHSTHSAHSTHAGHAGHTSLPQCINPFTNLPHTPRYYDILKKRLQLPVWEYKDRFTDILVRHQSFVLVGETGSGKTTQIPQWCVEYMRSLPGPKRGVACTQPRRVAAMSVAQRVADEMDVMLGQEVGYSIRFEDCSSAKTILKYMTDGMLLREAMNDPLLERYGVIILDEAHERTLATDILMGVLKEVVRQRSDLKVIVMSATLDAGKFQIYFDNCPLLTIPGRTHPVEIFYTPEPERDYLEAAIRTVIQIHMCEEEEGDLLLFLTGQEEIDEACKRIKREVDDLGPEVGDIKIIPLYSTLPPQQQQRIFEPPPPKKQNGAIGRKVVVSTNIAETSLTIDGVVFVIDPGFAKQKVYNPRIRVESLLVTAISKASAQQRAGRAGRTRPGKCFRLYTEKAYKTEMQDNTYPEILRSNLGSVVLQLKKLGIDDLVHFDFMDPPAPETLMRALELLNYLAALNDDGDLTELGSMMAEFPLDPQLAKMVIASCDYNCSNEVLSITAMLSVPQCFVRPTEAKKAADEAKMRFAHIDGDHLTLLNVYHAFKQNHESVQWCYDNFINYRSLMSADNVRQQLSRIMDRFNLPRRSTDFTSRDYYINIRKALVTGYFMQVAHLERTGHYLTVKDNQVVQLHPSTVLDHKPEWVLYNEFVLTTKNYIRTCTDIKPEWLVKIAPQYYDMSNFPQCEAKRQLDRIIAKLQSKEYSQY
UniProt O35286: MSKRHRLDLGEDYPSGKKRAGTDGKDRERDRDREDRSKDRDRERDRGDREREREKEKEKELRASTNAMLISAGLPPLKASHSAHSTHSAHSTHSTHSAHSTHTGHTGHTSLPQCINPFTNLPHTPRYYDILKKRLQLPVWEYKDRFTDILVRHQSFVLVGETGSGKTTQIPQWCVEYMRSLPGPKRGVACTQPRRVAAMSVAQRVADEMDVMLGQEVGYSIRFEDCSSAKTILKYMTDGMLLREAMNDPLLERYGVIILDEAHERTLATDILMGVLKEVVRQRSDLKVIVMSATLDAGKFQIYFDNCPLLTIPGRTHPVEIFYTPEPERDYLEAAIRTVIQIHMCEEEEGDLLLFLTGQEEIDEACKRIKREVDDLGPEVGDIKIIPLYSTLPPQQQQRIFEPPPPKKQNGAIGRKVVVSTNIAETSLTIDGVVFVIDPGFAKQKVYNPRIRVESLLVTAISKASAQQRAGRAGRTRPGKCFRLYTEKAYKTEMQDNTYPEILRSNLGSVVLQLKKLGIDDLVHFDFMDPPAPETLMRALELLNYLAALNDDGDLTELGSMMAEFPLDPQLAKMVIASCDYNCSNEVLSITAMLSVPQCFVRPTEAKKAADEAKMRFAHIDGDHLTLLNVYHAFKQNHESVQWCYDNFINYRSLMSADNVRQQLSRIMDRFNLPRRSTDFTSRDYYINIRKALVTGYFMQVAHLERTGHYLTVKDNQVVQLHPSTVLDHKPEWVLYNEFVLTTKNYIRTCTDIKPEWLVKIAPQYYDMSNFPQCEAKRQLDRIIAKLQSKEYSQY
UniProt P67809: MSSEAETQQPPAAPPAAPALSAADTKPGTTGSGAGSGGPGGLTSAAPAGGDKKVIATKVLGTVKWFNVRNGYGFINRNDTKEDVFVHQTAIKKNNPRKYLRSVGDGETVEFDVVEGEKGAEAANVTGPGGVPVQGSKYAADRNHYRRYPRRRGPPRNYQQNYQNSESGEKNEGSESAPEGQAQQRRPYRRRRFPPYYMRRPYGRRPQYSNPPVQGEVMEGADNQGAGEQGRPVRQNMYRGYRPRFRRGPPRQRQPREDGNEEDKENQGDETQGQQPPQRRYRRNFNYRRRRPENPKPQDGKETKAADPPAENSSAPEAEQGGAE

Tests used:
[1] = target: FLAG-tagged full-length mouse APOBEC3 (containing exon 5) (mouse) (UniProt Q99J72); assay: co-IP; 293T cells over-expressing FLAG-tagged mAPOBEC3, hAPOBEC3G or RFP; endogenous partner detected by Western blot; no RNase A
[2] = target: FLAG-tagged full-length mouse APOBEC3 (containing exon 5) (mouse) (UniProt Q99J72); assay: co-IP; as a2, but lysates incubated with RNase A (50 µg/ml) at 37°C for 30 minutes prior to immunoprecipitation
[3] = target: FLAG-tagged full-length mouse APOBEC3 (containing exon 5) (mouse) (UniProt Q99J72); assay: co-IP; 293T cells transfected with FLAG-tagged RFP, mA3, mA3N or mA3C and the DHX15 vector; blots probed with anti-DHX15 and anti-FLAG
[4] = target: GFP-tagged mAPOBEC3 fragment of 80 amino acids of the N terminus (mouse) (UniProt Q99J72); assay: co-IP; GFP-tagged mAPOBEC3 CD1 truncations and DHX15; lysates without RNase A
[5] = target: HA-tagged mouse APOBEC3 (mouse) (UniProt Q99J72); assay: proximity ligation; NIH3T3 cells transiently transfected with HA-tagged mAPOBEC3, fixed with methanol; mouse anti-HA and rabbit anti-DHX15; NaveniFlex MR PLA kit
[6] = target: FLAG-tagged full-length mouse APOBEC3 (containing exon 5) (mouse) (UniProt Q99J72); assay: condition: only lysates treated with RNase A (50 µg/ml, 37°C, 30 minutes) prior to immunoprecipitation; co-IP; as a2, but lysates incubated with RNase A (50 µg/ml) at 37°C for 30 minutes prior to immunoprecipitation

- binding [1]: binds
- binding [2]: binds
Substance: DEAH-box helicase 15 (DHX15), endogenous in 293T cells (from UniProt O43143 1-795)

- binding [3]: binds
- binding [4]: binds
Substance: DHX15 in the co-IPs with mAPOBEC3 domains and CD1 truncations (the DHX15 vector) (from UniProt O43143 1-795)

- binding [5]: binds
Substance: DHX15, endogenous in mouse cells (from UniProt O35286 1-795)

- binding [6]: no binding
- binding [1]: binds
Substance: Y-box binding protein 1 (YB1), endogenous in 293T cells (from UniProt P67809 1-324)
